The assay addresses VIRILIZER (VIR) fused to the GS tag, TAP bait (Arabidopsis thaliana) (UniProt F4J8G7). The assay can be described thus: affinity purification with mass spectrometry; tandem affinity purification by the GS tag of VIR (bait) from Arabidopsis cell suspension cultures, two independent purifications (TAP1, TAP2), proteolysis and mass spectrometry; putative false positives subtracted by prior TAP experiments on wild-type and mock cultures.

Chains of the proteins cited; added tags and fusions are not shown.
UniProt F4J8G7: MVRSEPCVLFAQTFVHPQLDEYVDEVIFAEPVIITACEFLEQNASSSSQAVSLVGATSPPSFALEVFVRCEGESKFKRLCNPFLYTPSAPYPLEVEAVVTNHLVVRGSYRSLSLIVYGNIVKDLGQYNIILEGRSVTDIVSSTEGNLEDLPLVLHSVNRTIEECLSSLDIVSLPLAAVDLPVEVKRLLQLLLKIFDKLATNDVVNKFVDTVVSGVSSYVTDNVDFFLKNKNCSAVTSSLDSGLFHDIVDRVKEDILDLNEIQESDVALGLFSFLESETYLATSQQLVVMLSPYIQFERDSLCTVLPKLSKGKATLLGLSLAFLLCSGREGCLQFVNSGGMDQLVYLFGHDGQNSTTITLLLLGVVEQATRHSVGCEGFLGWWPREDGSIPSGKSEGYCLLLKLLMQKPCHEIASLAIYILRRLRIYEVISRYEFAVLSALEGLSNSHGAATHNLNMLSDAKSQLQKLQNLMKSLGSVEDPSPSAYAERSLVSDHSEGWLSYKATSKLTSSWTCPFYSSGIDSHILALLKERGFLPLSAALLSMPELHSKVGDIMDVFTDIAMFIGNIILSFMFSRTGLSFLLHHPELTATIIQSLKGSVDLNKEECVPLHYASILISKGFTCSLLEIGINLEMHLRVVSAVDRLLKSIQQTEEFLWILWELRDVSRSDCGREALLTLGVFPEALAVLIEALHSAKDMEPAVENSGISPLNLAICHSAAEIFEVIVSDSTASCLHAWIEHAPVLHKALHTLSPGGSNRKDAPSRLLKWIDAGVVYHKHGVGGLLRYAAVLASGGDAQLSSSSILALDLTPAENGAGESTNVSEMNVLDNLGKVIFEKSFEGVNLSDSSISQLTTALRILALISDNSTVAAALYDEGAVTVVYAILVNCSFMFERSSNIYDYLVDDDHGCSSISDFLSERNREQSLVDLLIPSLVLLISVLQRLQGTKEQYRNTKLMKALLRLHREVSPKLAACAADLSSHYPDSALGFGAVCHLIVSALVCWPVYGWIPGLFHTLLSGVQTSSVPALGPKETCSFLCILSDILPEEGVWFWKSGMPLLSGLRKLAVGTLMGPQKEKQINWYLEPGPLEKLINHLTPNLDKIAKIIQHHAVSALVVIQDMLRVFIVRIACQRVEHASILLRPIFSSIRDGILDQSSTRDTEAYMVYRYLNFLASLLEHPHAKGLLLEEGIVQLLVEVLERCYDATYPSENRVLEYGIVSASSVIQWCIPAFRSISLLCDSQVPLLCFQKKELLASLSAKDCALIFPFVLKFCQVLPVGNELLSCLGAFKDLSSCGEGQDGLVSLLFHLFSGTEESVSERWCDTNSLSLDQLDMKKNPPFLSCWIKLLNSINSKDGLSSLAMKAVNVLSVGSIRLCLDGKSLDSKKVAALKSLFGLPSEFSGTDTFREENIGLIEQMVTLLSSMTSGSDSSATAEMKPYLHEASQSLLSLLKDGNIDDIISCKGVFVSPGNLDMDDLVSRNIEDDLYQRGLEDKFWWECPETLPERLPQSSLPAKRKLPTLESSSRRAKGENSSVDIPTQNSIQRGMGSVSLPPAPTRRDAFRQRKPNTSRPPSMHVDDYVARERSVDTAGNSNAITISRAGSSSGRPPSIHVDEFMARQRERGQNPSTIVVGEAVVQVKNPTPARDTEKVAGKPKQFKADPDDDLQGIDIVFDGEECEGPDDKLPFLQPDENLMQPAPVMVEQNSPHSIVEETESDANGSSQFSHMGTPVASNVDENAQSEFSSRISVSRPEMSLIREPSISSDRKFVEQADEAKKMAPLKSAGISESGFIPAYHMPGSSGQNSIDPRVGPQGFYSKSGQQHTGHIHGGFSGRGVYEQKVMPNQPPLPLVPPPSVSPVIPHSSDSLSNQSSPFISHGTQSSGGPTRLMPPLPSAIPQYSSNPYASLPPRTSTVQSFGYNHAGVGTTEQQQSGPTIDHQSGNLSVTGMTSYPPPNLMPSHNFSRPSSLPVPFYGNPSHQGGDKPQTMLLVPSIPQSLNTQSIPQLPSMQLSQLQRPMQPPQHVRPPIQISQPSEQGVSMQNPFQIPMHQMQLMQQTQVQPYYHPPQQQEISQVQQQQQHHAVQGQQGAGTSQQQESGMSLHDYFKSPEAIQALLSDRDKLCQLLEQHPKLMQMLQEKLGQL

No constants are given. Whether binding was seen depends on the method and setting. In cells and extracts the contact can be indirect. Here binding means that the protein was enriched with, or labelled near, the bait; the list need not be complete.

B1: FIP37 (FKBP12 … PROTEIN 37), endogenous (protein, UniProt Q9ZSZ8 1-330)
chain: MEFSSQDDDFGGDDSAANATRASGNRRSFGDLEDDEDDIFGSTTVAPGVRTGMILSLRGSLKNCKDDLASCQNELESAKTEIQKWKSAFQNESFVPAGKSPEPRFLIDYIQNLKSSEKSLKEQLEIAKRKEASCIVQYAKREQEMAELKSAVRDLKSQLKPASMQARRLLLDPAIHEEFSRLKNLVEEKDKKIKELQDNIAAVTFTPQSKNGKMLMAKCRTLQEENEEIGHQAAEGKIHELAIKLAMQKSQNAELRSQFEGLYKHMEELTNDVERSNETVIILQEKLEEKEKEIERVKKGLEIVSELVGDKKDEVDEIDEDAKEEIAGGE
Consider B1, for which the binding result is recorded as “binds”.

B2: HAKAI, E3 ubiquitin ligase, endogenous (protein, UniProt Q9LFC0 1-360)
chain: MLQIRLRRDSPTETGNGARPSPTETVTVACPDHLVLADLPVAKGIGSVTPTTVIKPVGRRSRRQLGERVHFCVRCDFPIAIYGRLIPCDHAFCLECARSDSICYLCDERIQKIQTIKMMEGIFICAAPHCLRSFLKKLDFEAHVHDLHGSLLQADAEKEDGNQSDVQSTMQQSSASESTLRAPLRSQLQQSRELNRSASFAKSQSGFSQVQNYPPDSDNSRPPGFETASPKPGIRFPDYPQPMNLMQPPSLPVPMNQNPGLPQQFGFPSYPTTESGSSQQFFNGAQYEMTRTESGGSEQSSLLGYPPPSPMTNLNFQGSYPPPSWNPGMAPPHTTQQVNRGRDGQSFGWPQENRDGFGQE
Consider B2, for which the binding entry is “binds”.

For the origin of these results see paper PMC5488176.
